Results: PMC12166272
These are yes or no findings as the source states them, for the method shown. In cells and extracts the contact can be indirect. Some entries that bind do so weakly or less than the wild type. For some assays here: Tags and fused reporters may be left off the sequences shown.

Key:
[1] = biological target: T1, NEURL3 (construct of the experiments of Figure S1; tag not told) (human) (UniProt Q96EH8); assay: co-IP; whole-cell extracts of transfected cells (HEK293T) 24 h after transfection, NP-40 lysis buffer; antibody with Protein A/G beads 4 h at 4°C; washed with PBS with 0.1% NP40; immunoblot
T1 sequence: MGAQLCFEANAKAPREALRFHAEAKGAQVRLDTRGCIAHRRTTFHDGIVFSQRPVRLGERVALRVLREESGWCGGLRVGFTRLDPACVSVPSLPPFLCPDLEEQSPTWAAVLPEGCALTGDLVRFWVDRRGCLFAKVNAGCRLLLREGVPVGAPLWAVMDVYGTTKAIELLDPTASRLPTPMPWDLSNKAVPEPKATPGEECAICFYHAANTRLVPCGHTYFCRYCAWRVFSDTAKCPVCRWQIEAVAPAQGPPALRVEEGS

[2] = biological target: T2, endogenous IRF7 of murine liver (mouse (endogenous in murine liver tissue)) (UniProt P70434); assay: co-IP; endogenous IRF7 immunoprecipitated from lysates of virus-infected murine liver tissue with an anti-IRF7 monoclonal antibody or rabbit IgG; western blot with anti-NEURL3 and anti-IRF7
T2 sequence: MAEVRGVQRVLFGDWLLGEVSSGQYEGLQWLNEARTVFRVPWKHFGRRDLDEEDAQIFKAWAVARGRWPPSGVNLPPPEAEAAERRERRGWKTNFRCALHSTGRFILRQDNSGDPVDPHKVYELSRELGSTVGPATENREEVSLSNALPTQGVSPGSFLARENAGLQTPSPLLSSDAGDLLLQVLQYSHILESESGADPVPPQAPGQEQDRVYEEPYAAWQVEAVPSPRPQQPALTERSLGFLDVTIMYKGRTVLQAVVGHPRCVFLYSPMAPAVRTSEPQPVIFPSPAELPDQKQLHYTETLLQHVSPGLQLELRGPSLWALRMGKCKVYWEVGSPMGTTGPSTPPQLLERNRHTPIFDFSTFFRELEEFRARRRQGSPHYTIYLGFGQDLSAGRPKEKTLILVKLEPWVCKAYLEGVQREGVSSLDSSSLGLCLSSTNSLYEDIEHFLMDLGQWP

[3] = biological target: T3, FLAG-IRF7 (interferon regulatory factor 7, full-length) (UniProt Q92985); assay: co-IP; whole-cell extracts of transfected cells (HEK293T) 24 h after transfection, NP-40 lysis buffer; antibody with Protein A/G beads 4 h at 4°C; washed with PBS with 0.1% NP40; immunoblot
T3 sequence: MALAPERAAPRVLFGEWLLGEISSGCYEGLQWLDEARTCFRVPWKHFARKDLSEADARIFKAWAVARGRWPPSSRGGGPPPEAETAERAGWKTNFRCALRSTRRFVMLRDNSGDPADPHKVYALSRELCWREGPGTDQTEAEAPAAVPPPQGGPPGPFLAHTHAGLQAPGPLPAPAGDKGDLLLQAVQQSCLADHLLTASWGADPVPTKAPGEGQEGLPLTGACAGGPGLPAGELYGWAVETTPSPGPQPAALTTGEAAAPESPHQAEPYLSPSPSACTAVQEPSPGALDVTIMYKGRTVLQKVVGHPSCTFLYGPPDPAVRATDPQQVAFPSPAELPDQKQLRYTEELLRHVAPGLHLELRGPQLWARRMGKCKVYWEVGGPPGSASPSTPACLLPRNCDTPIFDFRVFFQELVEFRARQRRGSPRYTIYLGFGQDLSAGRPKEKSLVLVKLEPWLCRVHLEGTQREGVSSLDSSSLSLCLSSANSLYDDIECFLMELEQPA

FLAG-NEURL3 (human) = biological target: T4, FLAG-NEURL3 (human) (UniProt Q96EH8); assay: as above
T4 sequence: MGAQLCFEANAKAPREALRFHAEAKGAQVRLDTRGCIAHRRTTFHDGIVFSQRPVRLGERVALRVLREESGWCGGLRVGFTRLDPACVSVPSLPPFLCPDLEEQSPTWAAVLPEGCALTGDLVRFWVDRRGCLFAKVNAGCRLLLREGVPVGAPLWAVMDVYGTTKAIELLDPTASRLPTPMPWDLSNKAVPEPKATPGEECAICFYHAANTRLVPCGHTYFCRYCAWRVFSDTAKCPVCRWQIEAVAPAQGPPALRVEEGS

| Binder | binding [1] | further results |
| --- | --- | --- |
| IRF8 (protein, UniProt Q02556 1-426) MCDRNGGRRLRQWLIEQIDSSMYPGLIWENEEKSMFRIPWKHAGKQDYNQEVDASIFKAWAVFKGKFKEGDKAEPATWKTRLRCALNKSPDFEEVTDRSQLDISEPYKVYRIVPEEEQKCKLGVATAGCVNEVTEMECGRSEIDELIKEPSVDDYMGMIKRSPSPPEACRSQLLPDWWAQQPSTGVPLVTGYTTYDAHHSAFSQMVISFYYGGKLVGQATTTCPEGCRLSLSQPGLPGTKLYGPEGLELVRFPPADAIPSERQRQVTRKLFGHLERGVLLHSSRQGVFVKRLCQGRVFCSGNAVVCKGRPNKLERDEVVQVFDTSQFFRELQQFYNSQGRLPDGRVVLCFGEEFPDMAPLRSKLILVQIEQLYVRQLAEEAGKSCGAGSVMQAPEEPPPDQVFRMFPDICASHQRSFFRENQQITV | binds weakly |  |
| IRF9 (protein, UniProt Q00978 1-393) MASGRARCTRKLRNWVVEQVESGQFPGVCWDDTAKTMFRIPWKHAGKQDFREDQDAAFFKAWAIFKGKYKEGDTGGPAVWKTRLRCALNKSSEFKEVPERGRMDVAEPYKVYQLLPPGIVSGQPGTQKVPSKRQHSSVSSERKEEEDAMQNCTLSPSVLQDSLNNEEEGASGGAVHSDIGSSSSSSSPEPQEVTDTTEAPFQGDQRSLEFLLPPEPDYSLLLTFIYNGRVVGEAQVQSLDCRLVAEPSGSESSMEQVLFPKPGPLEPTQRLLSQLERGILVASNPRGLFVQRLCPIPISWNAPQAPPGPGPHLLPSNECVELFRTAYFCRDLVRYFQGLGPPPKFQVTLNFWEESHGSSHTPQNLITVKMEQAFARYLLEQTPEQQAAILSLV | binds weakly |  |
| endogenous NEURL3 of murine liver (protein, UniProt Q8CJC5 1-254) MGSLLSPEANAEVPREALSFHGNATGAQVHLDDQRSTARRRSTFHDGIVFSQRPVWPGERVALRVLRHEEGWCGGLRVGFTRLDPAQVAASCLPPFVCPDLEEQSPTWAALLPEGFVRAGNVVCFWVNRRGWLFAKVNAGRPLLLRKDVLVQGAPLWAVMDVYGTTKAIELLDPKANAWIRSGEPVPESEVISGEECVICFHNTANTRLMPCGHSHFCGSCAWHIFKDTARCPICRWQIEEVAVVSSLKAEEGS |  | binding [2]: binds |
| HA-NEURL3 (protein, UniProt Q96EH8 1-262) MGAQLCFEANAKAPREALRFHAEAKGAQVRLDTRGCIAHRRTTFHDGIVFSQRPVRLGERVALRVLREESGWCGGLRVGFTRLDPACVSVPSLPPFLCPDLEEQSPTWAAVLPEGCALTGDLVRFWVDRRGCLFAKVNAGCRLLLREGVPVGAPLWAVMDVYGTTKAIELLDPTASRLPTPMPWDLSNKAVPEPKATPGEECAICFYHAANTRLVPCGHTYFCRYCAWRVFSDTAKCPVCRWQIEAVAPAQGPPALRVEEGS |  | binding [3]: binds |
| HA-IRF7 (protein, UniProt Q92985 1-503) MALAPERAAPRVLFGEWLLGEISSGCYEGLQWLDEARTCFRVPWKHFARKDLSEADARIFKAWAVARGRWPPSSRGGGPPPEAETAERAGWKTNFRCALRSTRRFVMLRDNSGDPADPHKVYALSRELCWREGPGTDQTEAEAPAAVPPPQGGPPGPFLAHTHAGLQAPGPLPAPAGDKGDLLLQAVQQSCLADHLLTASWGADPVPTKAPGEGQEGLPLTGACAGGPGLPAGELYGWAVETTPSPGPQPAALTTGEAAAPESPHQAEPYLSPSPSACTAVQEPSPGALDVTIMYKGRTVLQKVVGHPSCTFLYGPPDPAVRATDPQQVAFPSPAELPDQKQLRYTEELLRHVAPGLHLELRGPQLWARRMGKCKVYWEVGGPPGSASPSTPACLLPRNCDTPIFDFRVFFQELVEFRARQRRGSPRYTIYLGFGQDLSAGRPKEKSLVLVKLEPWLCRVHLEGTQREGVSSLDSSSLSLCLSSANSLYDDIECFLMELEQPA |  | binding (FLAG-NEURL3 (human)): binds |
| IRF7 (construct of the experiments of Figure S1; tag not told) (protein, UniProt Q92985 1-503) MALAPERAAPRVLFGEWLLGEISSGCYEGLQWLDEARTCFRVPWKHFARKDLSEADARIFKAWAVARGRWPPSSRGGGPPPEAETAERAGWKTNFRCALRSTRRFVMLRDNSGDPADPHKVYALSRELCWREGPGTDQTEAEAPAAVPPPQGGPPGPFLAHTHAGLQAPGPLPAPAGDKGDLLLQAVQQSCLADHLLTASWGADPVPTKAPGEGQEGLPLTGACAGGPGLPAGELYGWAVETTPSPGPQPAALTTGEAAAPESPHQAEPYLSPSPSACTAVQEPSPGALDVTIMYKGRTVLQKVVGHPSCTFLYGPPDPAVRATDPQQVAFPSPAELPDQKQLRYTEELLRHVAPGLHLELRGPQLWARRMGKCKVYWEVGGPPGSASPSTPACLLPRNCDTPIFDFRVFFQELVEFRARQRRGSPRYTIYLGFGQDLSAGRPKEKSLVLVKLEPWLCRVHLEGTQREGVSSLDSSSLSLCLSSANSLYDDIECFLMELEQPA | binds |  |
| IRF1 (protein, UniProt P10914 1-325) MPITRMRMRPWLEMQINSNQIPGLIWINKEEMIFQIPWKHAAKHGWDINKDACLFRSWAIHTGRYKAGEKEPDPKTWKANFRCAMNSLPDIEEVKDQSRNKGSSAVRVYRMLPPLTKNQRKERKSKSSRDAKSKAKRKSCGDSSPDTFSDGLSSSTLPDDHSSYTVPGYMQDLEVEQALTPALSPCAVSSTLPDWHIPVEVVPDSTSDLYNFQVSPMPSTSEATTDEDEEGKLPEDIMKLLEQSEWQPTNVDGKGYLLNEPGVQPTSVYGDFSCKEEPEIDSPGGDIGLSLQRVFTDLKNMDATWLDSLLTPVRLPSIQAIPCAP | binds weakly |  |
| IRF4 (protein, UniProt Q15306 1-451) MNLEGGGRGGEFGMSAVSCGNGKLRQWLIDQIDSGKYPGLVWENEEKSIFRIPWKHAGKQDYNREEDAALFKAWALFKGKFREGIDKPDPPTWKTRLRCALNKSNDFEELVERSQLDISDPYKVYRIVPEGAKKGAKQLTLEDPQMSMSHPYTMTTPYPSLPAQQVHNYMMPPLDRSWRDYVPDQPHPEIPYQCPMTFGPRGHHWQGPACENGCQVTGTFYACAPPESQAPGVPTEPSIRSAEALAFSDCRLHICLYYREILVKELTTSSPEGCRISHGHTYDASNLDQVLFPYPEDNGQRKNIEKLLSHLERGVVLWMAPDGLYAKRLCQSRIYWDGPLALCNDRPNKLERDQTCKLFDTQQFLSELQAFAHHGRSLPRFQVTLCFGEEFPDPQRQRKLITAHVEPLLARQLYYFAQQNSGHFLRGYDLPEHISNPEDYHRSIRHSSIQE | binds weakly |  |
